{"source": "PubChem BioAssay AID256", "about": "(DTP/NCI, 2004)", "test_system": "CD2F1 mice, L1210 leukemia ip, survival T/C", "assay": "NCI In Vivo Anticancer Drug Screen. Data for tumor model L1210 Leukemia (intraperitoneal) in CD2F1 (CDF1) mice", "conditions": "higher T/C = longer survival", "outline": "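Implant tumor; dose compound or vehicle; measure endpoint in both groups; report treated divided by control.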", "key": {"[1]": {"conditions": "T/C endpoint: mean survival time, dose: 400.0 mg/kg/injection, schedule: Q04DX003 (ip), vehicle: saline with Tween-80"}, "[2]": {"conditions": "T/C endpoint: mean survival time, dose: 400.0 mg/kg/injection, schedule: Q01DX001 (ip), vehicle: other"}, "[3]": {"conditions": "T/C endpoint: median survival time, dose: 50.0 mg/kg/injection, schedule: Q01DX009 (ip), vehicle: saline"}}, "note": "The list does not hold the whole screen: it is rich in T/C values a quarter to a half above the control, in often repeated tests (any T/C) and in doses without a T/C. Other doses and runs of a compound stand elsewhere. T/C gives the treated animals as a percentage of the vehicle group. Some doses have a count of surviving animals in place of a T/C: the source holds a T/C of zero for them, seemingly a mark for toxic or unscored doses. Some doses without a T/C left all or most animals alive at the check, yet need not have been tolerated: the source hardly ever lists a survival T/C far under the control, and the zero likely stands for such cases as well. Survivors were counted at the toxicity check, usually on the fifth day, unless a day is given; later deaths do not show. Schedules are NCI's codes, read here as Q, the interval in days (D) or hours (H), X, the number of doses. Some entries were tested several times; the values are given in rising order. For survival time, this PubChem deposit counts one and a half times the control or more as active, and values a quarter to a half above the control carry no call in these data; other NCI protocols may use other cut-offs. Counts like (3×) count equal records among those shown. Some T/C values carry the count of animals alive at the toxicity check (mostly the fifth day); without a count, all were alive then."}
{"smiles": "CN(C)N=Nc1ccc(C(F)(F)F)cc1", "values": [{"measurement": "survivor count", "setting": "T/C endpoint: mean survival time, dose: 266.0 mg/kg/injection, schedule: Q01DX009 (ip), vehicle: Klucel (hydroxypropylcellulose) (HPC)", "value": "2 of 6"}, {"measurement": "survivor count", "setting": "T/C endpoint: mean survival time, dose: 400.0 mg/kg/injection, schedule: Q01DX009 (ip), vehicle: Klucel (hydroxypropylcellulose) (HPC)", "value": "0 of 6"}, {"measurement": "survivor count", "setting": "T/C endpoint: mean survival time, dose: 600.0 mg/kg/injection, schedule: Q01DX009 (ip), vehicle: Klucel (hydroxypropylcellulose) (HPC)", "value": "0 of 6"}]}
{"smiles": "CN(C)c1ccc(N=Nc2cccc(C(=O)[O-])c2)cc1.CN(C)c1ccc(N=Nc2cccc(C(=O)[O-])c2)cc1.NC1CCCCC1N.O=[N+]([O-])O.[Pt+4]", "values": [{"measurement": "T/C", "setting": "T/C endpoint: median survival time, dose: 25.0 mg/kg/injection, schedule: Q04DX003 (ip), vehicle: saline with Tween-80", "value": "128 % of control"}, {"measurement": "T/C", "setting": "T/C endpoint: median survival time, dose: 50.0 mg/kg/injection, schedule: Q04DX003 (ip), vehicle: saline with Tween-80", "value": "128 and 142 % of control"}, {"measurement": "T/C", "setting": "T/C endpoint: median survival time, dose: 200.0 mg/kg/injection, schedule: Q04DX003 (ip), vehicle: saline with Tween-80", "value": "141 % of control"}]}
{"smiles": "c1cc[n+]2c(c1)-c1cccc[n+]1CCCC2", "values": [{"measurement": "survivor count", "setting": "T/C endpoint: mean survival time, dose: 300.0 mg/kg/injection, schedule: Q01DX009 (ip), vehicle: saline", "value": "0 of 6"}]}
{"smiles": "CC(C)=NC(=O)NO.[Cl][Co][Cl]", "values": [{"measurement": "survivor count", "setting": "T/C endpoint: mean survival time, dose: 38.0 mg/kg/injection, schedule: Q04DX003 (ip), vehicle: saline", "value": "3 of 6"}, {"measurement": "survivor count", "setting": "T/C endpoint: mean survival time, dose: 150.0 mg/kg/injection, schedule: Q04DX003 (ip), vehicle: saline", "value": "4 of 6"}]}
{"smiles": "CC(C)N(CCN(C)C(=O)C(O)(c1ccccc1)c1ccccc1)C(C)C", "values": [{"measurement": "survivor count", "setting": "T/C endpoint: mean survival time, dose: 200.0 mg/kg/injection, schedule: Q04DX003 (ip), vehicle: saline with Tween-80", "value": "2 of 3"}, {"measurement": "survivor count", "setting": "[1]", "value": "0 of 3"}]}
{"smiles": "Cc1ccc(CNc2cc(C)ccn2)cc1", "values": [{"measurement": "survivor count", "setting": "[1]", "value": "6 of 6"}]}
{"smiles": "Nc1nc2ncc(CNc3ccc(C(=O)NC(CCC(=O)O)C(=O)O)cn3)nc2c(=O)[nH]1", "note": "(configuration not stated)", "values": [{"measurement": "survivor count", "setting": "T/C endpoint: mean survival time, dose: 150.0 mg/kg/injection, schedule: Q01DX001 (ip), vehicle: other", "value": "2 of 6"}, {"measurement": "survivor count", "setting": "T/C endpoint: mean survival time, dose: 300.0 mg/kg/injection, schedule: Q01DX001 (ip), vehicle: other", "value": "0 of 6"}]}
{"smiles": "N#CCN(CC#N)c1ccccc1", "values": [{"measurement": "survivor count", "setting": "T/C endpoint: mean survival time, dose: 12.5 mg/kg/injection, schedule: Q01DX001 (ip), vehicle: other", "value": "1 of 3"}, {"measurement": "survivor count", "setting": "T/C endpoint: mean survival time, dose: 25.0 mg/kg/injection, schedule: Q01DX001 (ip), vehicle: other", "value": "0 of 3"}, {"measurement": "survivor count", "setting": "T/C endpoint: mean survival time, dose: 100.0 mg/kg/injection, schedule: Q01DX001 (ip), vehicle: other", "value": "0 of 3"}, {"measurement": "survivor count", "setting": "T/C endpoint: mean survival time, dose: 200.0 mg/kg/injection, schedule: Q01DX001 (ip), vehicle: other", "value": "0 of 3"}, {"measurement": "survivor count", "setting": "[2]", "value": "0 of 3"}]}
{"smiles": "Brc1c(NC2=NCCN2)ccc2nccnc12", "values": [{"measurement": "T/C", "setting": "T/C endpoint: median survival time, dose: 12.5 mg/kg/injection, schedule: Q01DX009 (ip), vehicle: saline", "value": "103, 112, 116, 120 % of control (2×)"}, {"measurement": "T/C", "setting": "T/C endpoint: median survival time, dose: 25.0 mg/kg/injection, schedule: Q01DX009 (ip), vehicle: saline", "value": "100 [5 of 6 alive], 119 [9 of 10 alive], 120 [5 of 6 alive], 130 % of control"}, {"measurement": "T/C", "setting": "[3]", "value": "98 [5 of 6 alive], 130 [5 of 6 alive], 137 % of control"}, {"measurement": "survivor count", "setting": "[3]", "value": "5 of 10"}, {"measurement": "survivor count", "setting": "T/C endpoint: median survival time, dose: 100.0 mg/kg/injection, schedule: Q01DX009 (ip), vehicle: saline", "value": "3 of 10 and 2 of 6"}, {"measurement": "survivor count", "setting": "T/C endpoint: median survival time, dose: 200.0 mg/kg/injection, schedule: Q01DX009 (ip), vehicle: saline", "value": "2 of 10"}]}
{"smiles": "COc1cc(Cl)ccc1NC(=O)Nc1ccc(CCO)cc1", "values": [{"measurement": "survivor count", "setting": "T/C endpoint: mean survival time, dose: 200.0 mg/kg/injection, schedule: Q01DX009 (ip), vehicle: saline with Tween-80", "value": "3 of 3"}]}
{"smiles": "Oc1c(O)c(Br)c(Br)c(Br)c1Br", "values": [{"measurement": "survivor count", "setting": "[2]", "value": "2 of 6"}]}
